In publication PMC12245028 one finds binding data, which are given here for one substance.

The chains behind the UniProt entries cited, without tags or fusion partners.
UniProt P30291: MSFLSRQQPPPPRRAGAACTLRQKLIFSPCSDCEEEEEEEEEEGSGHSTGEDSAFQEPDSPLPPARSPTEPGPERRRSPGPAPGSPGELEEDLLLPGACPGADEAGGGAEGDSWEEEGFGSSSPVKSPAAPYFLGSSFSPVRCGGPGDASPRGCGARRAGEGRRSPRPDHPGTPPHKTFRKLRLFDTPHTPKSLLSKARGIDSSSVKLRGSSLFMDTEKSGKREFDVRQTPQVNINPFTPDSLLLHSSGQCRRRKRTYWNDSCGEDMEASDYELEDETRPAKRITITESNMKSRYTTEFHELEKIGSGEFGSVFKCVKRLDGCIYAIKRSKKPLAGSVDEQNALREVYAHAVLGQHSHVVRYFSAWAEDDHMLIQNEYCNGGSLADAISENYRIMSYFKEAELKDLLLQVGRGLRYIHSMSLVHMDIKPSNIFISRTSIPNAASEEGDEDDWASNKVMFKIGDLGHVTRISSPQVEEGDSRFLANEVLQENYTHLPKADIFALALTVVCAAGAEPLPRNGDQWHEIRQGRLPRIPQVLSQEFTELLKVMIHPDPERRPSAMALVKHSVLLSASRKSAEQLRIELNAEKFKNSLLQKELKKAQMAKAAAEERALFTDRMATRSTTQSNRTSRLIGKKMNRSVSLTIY
UniProt Q04206: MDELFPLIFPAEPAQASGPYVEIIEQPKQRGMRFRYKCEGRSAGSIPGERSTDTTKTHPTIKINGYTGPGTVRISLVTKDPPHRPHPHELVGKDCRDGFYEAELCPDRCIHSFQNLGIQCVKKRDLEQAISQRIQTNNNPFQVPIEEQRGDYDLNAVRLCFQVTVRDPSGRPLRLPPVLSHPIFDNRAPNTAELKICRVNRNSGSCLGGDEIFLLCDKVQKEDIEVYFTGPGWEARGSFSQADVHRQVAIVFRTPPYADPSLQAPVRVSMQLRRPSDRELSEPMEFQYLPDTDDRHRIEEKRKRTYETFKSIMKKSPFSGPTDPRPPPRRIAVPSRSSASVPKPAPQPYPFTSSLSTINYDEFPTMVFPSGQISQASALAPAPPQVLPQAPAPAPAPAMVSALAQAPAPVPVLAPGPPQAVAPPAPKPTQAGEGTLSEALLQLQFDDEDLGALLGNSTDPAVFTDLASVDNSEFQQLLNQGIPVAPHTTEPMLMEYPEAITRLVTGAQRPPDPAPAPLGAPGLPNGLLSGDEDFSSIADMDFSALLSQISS

These are yes or no findings as the source states them, for the method shown. In cells and extracts the contact can be indirect. Here binding means that the protein was enriched with, or labelled near, the bait; the list need not be complete.

The target of the test is HA‐WEE1^WT (UniProt P30291). In words: affinity purification with mass spectrometry; anti-HA antibody added to lysate of 293T cells transfected with HA-WEE1 (24 h); IgG as negative control; label-free quantitative proteomics; hits by HA/IgG ratio >1.5.

Take “NF‐κB p65 subunit (RELA, Transcription factor p65) (from UniProt Q04206 1-551)”: the binding entry is “binds”.
